Experimental data as given in PubChem BioAssay AID328 (DTP/NCI, 2004).
The list is a part of this screen's results and no random one: it is rich in T/C values a quarter to a half above the control, in often repeated tests (any T/C) and in doses without a T/C. Other doses and runs of a compound stand elsewhere. T/C gives the treated animals as a percentage of the vehicle group. Some doses have a count of surviving animals in place of a T/C: the source holds a T/C of zero for them, seemingly a mark for toxic or unscored doses. Some doses without a T/C left all or most animals alive at the check, yet need not have been tolerated: the source hardly ever lists a survival T/C far under the control, and the zero likely stands for such cases as well. Counts of survivors are from the toxicity check (mostly the fifth day) where no day follows; animals may have died later. Schedule codes are those of the source, taken here to give the interval after Q, in days (D) or hours (H), and the number of doses after X. For survival time, the PubChem record calls one and a half times the control and up active, and a quarter to a half above the control has no call in these data; cut-offs in other NCI protocols can differ. Some entries were tested several times; their values stand side by side, smallest first. Some T/C values are followed by the survivors on the day toxicity was checked, most often the fifth; where none is given, no animal had died by that day.

System: BDF1 mice, P388 leukemia ip, median survival T/C
Test: NCI In Vivo Anticancer Drug Screen. Data for tumor model P388 Leukemia (intraperitoneal) in B6D2F1 (BDF1) mice
Conditions: T/C endpoint: median survival time, higher T/C = longer survival
How it was run: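 Survival ratio, drug arm over vehicle arm, in mice with a transplanted tumour.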

[1] = dose: 8.0 mg/kg/injection, schedule: Q01DX009 (ip), vehicle: saline
[2] = dose: 50.0 mg/kg/injection, schedule: Q01DX009 (ip), vehicle: saline with Tween-80
[3] = dose: 200.0 mg/kg/injection, schedule: Q01DX009 (ip), vehicle: saline with Tween-80
[4] = dose: 400.0 mg/kg/injection, schedule: Q01DX009 (ip), vehicle: saline

**Q.** Which results are given for `C1CCC2C[N-]CCC2C1.C1CCC2C[N-]CCC2C1.C1CCC2C[N-]CCC2C1.C1CCC2C[N-]CCC2C1.[Cl][Rh][Cl]` (stereo unspecified)?
**A.** T/C (dose: 0.29 mg/kg/injection, schedule: Q01DX009 (ip), vehicle: saline): 139 % of control; T/C (dose: 0.44 mg/kg/injection, schedule: Q01DX009 (ip), vehicle: saline): 133 % of control; T/C (dose: 0.66 mg/kg/injection, schedule: Q01DX009 (ip), vehicle: saline): 130 % of control; T/C (dose: 1.0 mg/kg/injection, schedule: Q01DX009 (ip), vehicle: saline): 132 % of control; T/C (dose: 1.56 mg/kg/injection, schedule: Q01DX009 (ip), vehicle: saline with Tween-80): 144 % of control; T/C (dose: 1.78 mg/kg/injection, schedule: Q01DX009 (ip), vehicle: saline): 136 % of control; survivor count (dose: 3.12 mg/kg/injection, schedule: Q01DX009 (ip), vehicle: saline with Tween-80): 1 of 6; T/C (dose: 3.12 mg/kg/injection, schedule: Q04DX003 (ip), vehicle: saline with Tween-80): 140 % of control; survivor count (dose: 6.25 mg/kg/injection, schedule: Q01DX009 (ip), vehicle: saline with Tween-80): 0 of 6; T/C (dose: 6.25 mg/kg/injection, schedule: Q04DX003 (ip), vehicle: saline with Tween-80): 125 % of control; survivor count [1]: 6 of 6; survivor count (dose: 12.5 mg/kg/injection, schedule: Q04DX003 (ip), vehicle: saline with Tween-80): 5 of 6; survivor count (dose: 16.0 mg/kg/injection, schedule: Q01DX009 (ip), vehicle: saline): 6 of 6; survivor count (dose: 32.0 mg/kg/injection, schedule: Q01DX009 (ip), vehicle: saline): 0 of 6

**Q.** What does the source list for `OCCC1CC1=C1CC1` (stereo unspecified)?
**A.** survivor count (dose: 150.0 mg/kg/injection, schedule: Q01DX009 (ip), vehicle: Klucel (hydroxypropylcellulose) (HPC)): 2 of 6; survivor count (dose: 225.0 mg/kg/injection, schedule: Q01DX009 (ip), vehicle: Klucel (hydroxypropylcellulose) (HPC)): 0 of 6; survivor count (dose: 335.0 mg/kg/injection, schedule: Q01DX009 (ip), vehicle: Klucel (hydroxypropylcellulose) (HPC)): 0 of 6

**Q.** Which survivor count [2] does the source give for `CC(CCCN)Nc1cc2c(c3cccnc13)OCCO2` (stereo unspecified) here?
**A.** 3 of 6

**Q.** What about the survivor count (dose: 100.0 mg/kg/injection, schedule: Q01DX009 (ip), vehicle: saline with Tween-80) of the same molecule?
**A.** 0 of 6

**Q.** And the survivor count [3]?
**A.** 0 of 6

**Q.** Which results are given for `CCCCCCCCCCCCCCCCCCCCCCCCC(O)C(=O)NC(CO)C(O)C(O)CCCCCCCCCCCCCC` (stereo unspecified)?
**A.** survivor count (dose: 100.0 mg/kg/injection, schedule: Q04DX003 (ip), vehicle: saline with Tween-80): 6 of 6; survivor count (dose: 200.0 mg/kg/injection, schedule: Q04DX003 (ip), vehicle: saline with Tween-80): 6 of 6

**Q.** How did the survivor count (dose: 3.25 mg/kg/injection, schedule: Q01DX010 (sc), vehicle: steroid suspending solution) turn out when `CC1OC(O[C@@H]2C=C3CC[C@@H]4[C@H](CC[C@]5(C)[C@@H](c6ccc(=O)oc6)CC[C@]45O)[C@@]3(C)CC2)C(O)C(OC2OC(CO)C(O)C(O)C2O)C1O` (stereo partly specified) was run?
**A.** 3 of 6

**Q.** What about the survivor count (dose: 7.5 mg/kg/injection, schedule: Q01DX010 (sc), vehicle: steroid suspending solution) of the same molecule?
**A.** 2 of 6

**Q.** And the survivor count (dose: 15.0 mg/kg/injection, schedule: Q01DX010 (sc), vehicle: steroid suspending solution)?
**A.** 2 of 6

**Q.** With `COc1ccc(CC(=O)Cc2ccc(OC)c(OC)c2)cc1OC` as the molecule, how does the T/C (dose: 400.0 mg/kg/injection, schedule: Q01DX009 (ip), vehicle: saline with Tween-80) read?
**A.** 134 % of control

**Q.** With `COc1ccc(C(=O)CC(c2ccc(OC)c(OC)c2)c2c(O)c3ccccc3oc2=O)cc1OC` (stereo unspecified) as the molecule, how does the survivor count [4] read?
**A.** 3 of 6

**Q.** For `C/C(=N/S(=O)(=O)c1ccc(C)cc1)OCCN(C)C`, which survivor count (dose: 12.0 mg/kg/injection, schedule: Q04DX003 (ip), vehicle: saline with Tween-80) is on record?
**A.** 3 of 6

**Q.** For `C=C1C(=O)OC2/C=C(\C)CC(O)/C=C(/C)CC(OC(=O)C(O)(CO)C(C)S)C12` (stereo unspecified), which survivor count (dose: 400.0 mg/kg/injection, schedule: Q04DX002 (ip), vehicle: Klucel (hydroxypropylcellulose) (HPC)) is on record?
**A.** 0 of 6

**Q.** What does the source list for `Cc1c(N)nc(C(CC(N)=O)NCC(N)C(N)=O)nc1C(=O)NC(C(=O)NC(C)C(O)C(C)C(=O)NC(C(=O)NCCc1nc(-c2nc(C(=O)NCCC[S+](C)C)cs2)cs1)C(C)O)C(OC1OC(CO)C(O)C(O)C1OC1OC(CO)C(O)C(OC(N)=O)C1O)c1cnc[nH]1` (stereo unspecified)?
**A.** T/C (dose: 2.0 mg/kg/injection, schedule: Q01DX009 (ip), vehicle: saline): 127 and 136 % of control; T/C (dose: 4.0 mg/kg/injection, schedule: Q01DX009 (ip), vehicle: saline): 130, 136, 145 % of control; T/C [1]: 134 and 136 % of control

**Q.** For `CCOP(=O)(OCC)OCCCN(CC)CC`, which survivor count [4] is on record?
**A.** 0 of 6

**Q.** With `CCCCC/C(C=C(C#N)C#N)=C/c1ccccc1` as the molecule, how does the T/C [2] read?
**A.** 128 % of control

**Q.** And the survivor count [3]?
**A.** 1 of 6

**Q.** With `COCn1cc(C(N)=O)c(=O)c2c(N)nc(SC)nc21` as the molecule, how does the survivor count (dose: 200.0 mg/kg/injection, schedule: Q04DX002 (ip), vehicle: saline with Tween-80) read?
**A.** 6 of 6

**Q.** Which T/C (dose: 50.0 mg/kg/injection, schedule: Q04DX003 (ip), vehicle: saline with Tween-80) does the source give for `O=C(CCCc1ccc(N(CCCl)CCCl)cc1)Nc1ccccc1` here?
**A.** 130 % of control

**Q.** For `COc1ccc(C2CCc3cc(OC)c(OC)cc3C2NC=O)cc1OC` (stereo unspecified), which survivor count (dose: 20.0 mg/kg/injection, schedule: Q01DX009 (ip), vehicle: saline with Tween-80) is on record?
**A.** 6 of 6

**Q.** And the survivor count (dose: 40.0 mg/kg/injection, schedule: Q01DX009 (ip), vehicle: saline with Tween-80)?
**A.** 6 of 6

**Q.** And the survivor count (dose: 80.0 mg/kg/injection, schedule: Q01DX009 (ip), vehicle: saline with Tween-80)?
**A.** 6 of 6

**Q.** With `C=CC[N+](CC=C)(CC=C)CCC[N+](CC=C)(CC=C)CC=C` as the molecule, how does the survivor count (dose: 100.0 mg/kg/injection, schedule: Q04DX003 (ip), vehicle: water) read?
**A.** 1 of 6

**Q.** `CC([OH2+])CNCCN.CC([OH2+])CNCCN.O=[N+]([O-])[O-].[Cu+2]` (stereo unspecified) was tested. Which survivor count (dose: 50.0 mg/kg/injection, schedule: Q01DX009 (ip), vehicle: saline) did it give?
**A.** 2 of 6

**Q.** For `O=[N+]([O-])c1ccccc1N=P(c1ccccc1)(c1ccccc1)c1ccccc1`, which survivor count (dose: 200.0 mg/kg/injection, schedule: Q01DX009 (ip), vehicle: DMSO) is on record?
**A.** 3 of 6

**Q.** Which T/C (dose: 200.0 mg/kg/injection, schedule: Q01DX009 (ip), vehicle: Klucel (hydroxypropylcellulose) (HPC)) does the source give for `CC1(C)CCSC(/C=C/c2ccccc2)=N1` here?
**A.** 126 % of control

**Q.** What about the survivor count (dose: 400.0 mg/kg/injection, schedule: Q01DX009 (ip), vehicle: Klucel (hydroxypropylcellulose) (HPC)) of the same molecule?
**A.** 0 of 6

**Q.** For `Cc1cc(C)c(CCl)cc1CCl`, which T/C (dose: 7.0 mg/kg/injection, schedule: Q01DX009 (ip), vehicle: saline with Tween-80) is on record?
**A.** 125 and 136 % of control

**Q.** And the T/C (dose: 11.0 mg/kg/injection, schedule: Q01DX009 (ip), vehicle: saline with Tween-80)?
**A.** 136 % of control

**Q.** What about the T/C (dose: 12.5 mg/kg/injection, schedule: Q01DX009 (ip), vehicle: saline with Tween-80) of the same molecule?
**A.** 127 % of control

**Q.** And the T/C (dose: 16.0 mg/kg/injection, schedule: Q01DX009 (ip), vehicle: saline with Tween-80)?
**A.** 144 % of control

**Q.** What about the T/C (dose: 16.5 mg/kg/injection, schedule: Q01DX009 (ip), vehicle: saline with Tween-80) of the same molecule?
**A.** 129 % of control

**Q.** And the T/C (dose: 25.0 mg/kg/injection, schedule: Q01DX009 (ip), vehicle: saline with Tween-80, evaluated on day 20)?
**A.** 136 % of control

**Q.** What about the T/C (dose: 25.0 mg/kg/injection, schedule: Q01DX009 (ip), vehicle: saline with Tween-80, evaluated on day 30) of the same molecule?
**A.** 125 [5 of 6 alive] and 141 % of control

**Q.** And the T/C (dose: 37.5 mg/kg/injection, schedule: Q01DX009 (ip), vehicle: saline with Tween-80)?
**A.** 133 % of control

**Q.** For `Clc1nc2nc3n(c2nc1Cl)CCC3(Br)Br`, which survivor count (dose: 25.0 mg/kg/injection, schedule: Q01DX009 (ip), vehicle: other) is on record?
**A.** 5 of 6

**Q.** What about the survivor count (dose: 50.0 mg/kg/injection, schedule: Q01DX009 (ip), vehicle: other) of the same molecule?
**A.** 6 of 6

**Q.** What about the survivor count (dose: 100.0 mg/kg/injection, schedule: Q01DX009 (ip), vehicle: other) of the same molecule?
**A.** 5 of 6

**Q.** And the survivor count (dose: 200.0 mg/kg/injection, schedule: Q01DX009 (ip), vehicle: other)?
**A.** 6 of 6

**Q.** And the survivor count (dose: 400.0 mg/kg/injection, schedule: Q01DX009 (ip), vehicle: other)?
**A.** 5 of 6

**Q.** For `Cc1ccc(C)c2c1CCCC2=O`, which survivor count (dose: 25.0 mg/kg/injection, schedule: Q01DX009 (ip), vehicle: saline with Tween-80) is on record?
**A.** 6 of 6

**Q.** Which survivor count (dose: 25.0 mg/kg/injection, schedule: Q01DX009 (ip), vehicle: carboxymethylcellulose (CMC)) does the source give for `Nc1ncnc2c1ncn2C1CC(CO)C(O)C1O` (stereo unspecified) here?
**A.** 5 of 6

**Q.** What about the survivor count (dose: 50.0 mg/kg/injection, schedule: Q01DX009 (ip), vehicle: carboxymethylcellulose (CMC)) of the same molecule?
**A.** 6 of 6
